According to ChEMBL document CHEMBL4837246 (J Med Chem, 2021):
Values after ≈ are worked out from the molar mass of the structure shown.

Key:
physchem [1] = details: buffer, pH 7.5
physchem [2] = details: buffer, pH 6.5
in vitro = details: human, Caco-2

`FC(F)c1cncc(-c2ccc3ncc4nnc(C5=CCCOCC5)n4c3c2)c1` gave a chromatographic logD (physchem [1]) of 1.8, a solubility at 24 h (physchem [2]) of 0.099 mg/mL (≈ 252 µM) and a Papp A→B at 2 h, 2 µM (in vitro) of 305 nm/s.
